Test results from article PMC5974397, “Oligomeric states of microbial rhodopsins determined by high-speed atomic force microscopy and circular dichroic spectroscopy” (Scientific Reports, 2018).
These are yes or no findings as the source states them, for the method shown. Some entries that bind do so weakly or less than the wild type.

Molecular target: Gloeobacter rhodopsin (Gloeobacter violaceus PCC 7421) (UniProt Q7NP59)
Test: circular dichroism spectroscopy (visible, exciton coupling of retinals); protein solubilized in DDM; both purified

B1: Gloeobacter rhodopsin (natural protein, Gloeobacter violaceus PCC 7421, UniProt Q7NP59 1-298, looked up)
chain: MLMTVFSSAPELALLGSTFAQVDPSNLSVSDSLTYGQFNLVYNAFSFAIAAMFASALFFFSAQALVGQRYRLALLVSAIVVSIAGYHYFRIFNSWDAAYVLENGVYSLTSEKFNDAYRYVDWLLTVPLLLVETVAVLTLPAKEARPLLIKLTVASVLMIATGYPGEISDDITTRIIWGTVSTIPFAYILYVLWVELSRSLVRQPAAVQTLVRNMRWLLLLSWGVYPIAYLLPMLGVSGTSAAVGVQVGYTIADVLAKPVFGLLVFAIALVKTKADQESSEPHAAIGAAANKSGGSLIS
modifications: retinal chromophore
notes: Gloeobacter rhodopsin (GR), proton pump, from Gloeobacter violaceus PCC 7421; also called GR; rhodopsin from Gloeobacter violaceus PCC 7421; not shown: His6, C-terminal, kept
With B1 the binding was “binds”.
